Experimental data: patent EP0163537A1, “1-Propanone derivatives and pharmaceutical compositions containing same” (priority 1984, dated 1985)
Structures can show the parent of a compound that is named as a salt. The name of at least one read-out is uncertain.

Experiments:
Format in all cases: in vivo
Male mice of ddY strain [1] = test: Test 1 Anti-nicotine activity (inhibition of nicotine-induced convulsive death); details: 200 mg/kg po, nicotine 2 mg/kg iv after 1 h, observed 1 h
Protocol: Male mice of ddY strain, weighing 28 to 33 g, were used in groups of eight or twelve. The test compounds were dissolved in distilled water and administered orally in a dose of 200 mg/kg. After an hour, nicotine was intravenously administered in a dose of 2 mg/kg.

Male mice of ddY strain [2] = test: Test 3 Muscle relaxant activity (traction test, method of Courvoisier et al.); details: Table-4d; 75 mg/kg ip; 15 minutes after administration; groups of ten
Male mice of ddY strain [3] = test: Test 2 Anti-tremorine activity (inhibition of tremorine-induced tremor); details: Table-3d, 50 mg/kg po, 10 animals used

Row | SMILES | Number of surviving animals (Male mice of ddY strain [1]; Table-2a, 8 animals used) | Number of surviving animals (Male mice of ddY strain [1]; Table-2b, 12 animals used) | Number of surviving animals (Male mice of ddY strain [1]; Table-2c, 12 animals used) | Muscle relaxation rate (%) (Male mice of ddY strain [2]) | Number of animals exhibiting no tremor (Male mice of ddY strain [3]; After 30 min.) | Number of animals exhibiting no tremor (Male mice of ddY strain [3]; After 60 min.)
1 | CCc1ccc(C(=O)C(C)CN2CCCCC2)cc1 (stereo not drawn) [Eperisone HCl, Eperisone, reference compound] | 4 | 6 | 6 |  |  | 
2 | CC(CN1CCCC1)C(=O)c1ccc2c(c1)CCO2.Cl (stereo not drawn) [Example 92, 1-(2,3-Dihydro-5-benzofuranyl)-2-methyl-3-(1-pyrrolidinyl)-1-propanone hydrochloride] |  |  |  | 60 |  | 
3 | CCCC(CN1CCCC1)C(=O)c1ccc2c(c1)CCO2.Cl (stereo not drawn) [Example 98, 1-(2,3-Dihydro-5-benzofuranyl)-2-n-propyl-3-(1-pyrrolidinyl)-1-propanone hydrochloride] |  |  |  |  | 10 | 9
4 | Cc1ccc(C(=O)C(C)CN2CCCCC2)cc1 (stereo not drawn) [Tolperisone HCl, 2-methyl-1-(4-methylphenyl)-3-(1-piperidinyl)-1-propanone, reference compound] | 0 | 0 | 1 |  |  | 
